Results reported in publication doi:10.1101/2024.03.20.585881.
No constants are given. Whether binding was seen depends on the method and setting. In cells and extracts the contact can be indirect. Here binding means that the protein was enriched with, or labelled near, the bait; the list need not be complete.

Sequences of proteins named here, by UniProt entry; tags and fusion partners are left off.
UniProt P25054: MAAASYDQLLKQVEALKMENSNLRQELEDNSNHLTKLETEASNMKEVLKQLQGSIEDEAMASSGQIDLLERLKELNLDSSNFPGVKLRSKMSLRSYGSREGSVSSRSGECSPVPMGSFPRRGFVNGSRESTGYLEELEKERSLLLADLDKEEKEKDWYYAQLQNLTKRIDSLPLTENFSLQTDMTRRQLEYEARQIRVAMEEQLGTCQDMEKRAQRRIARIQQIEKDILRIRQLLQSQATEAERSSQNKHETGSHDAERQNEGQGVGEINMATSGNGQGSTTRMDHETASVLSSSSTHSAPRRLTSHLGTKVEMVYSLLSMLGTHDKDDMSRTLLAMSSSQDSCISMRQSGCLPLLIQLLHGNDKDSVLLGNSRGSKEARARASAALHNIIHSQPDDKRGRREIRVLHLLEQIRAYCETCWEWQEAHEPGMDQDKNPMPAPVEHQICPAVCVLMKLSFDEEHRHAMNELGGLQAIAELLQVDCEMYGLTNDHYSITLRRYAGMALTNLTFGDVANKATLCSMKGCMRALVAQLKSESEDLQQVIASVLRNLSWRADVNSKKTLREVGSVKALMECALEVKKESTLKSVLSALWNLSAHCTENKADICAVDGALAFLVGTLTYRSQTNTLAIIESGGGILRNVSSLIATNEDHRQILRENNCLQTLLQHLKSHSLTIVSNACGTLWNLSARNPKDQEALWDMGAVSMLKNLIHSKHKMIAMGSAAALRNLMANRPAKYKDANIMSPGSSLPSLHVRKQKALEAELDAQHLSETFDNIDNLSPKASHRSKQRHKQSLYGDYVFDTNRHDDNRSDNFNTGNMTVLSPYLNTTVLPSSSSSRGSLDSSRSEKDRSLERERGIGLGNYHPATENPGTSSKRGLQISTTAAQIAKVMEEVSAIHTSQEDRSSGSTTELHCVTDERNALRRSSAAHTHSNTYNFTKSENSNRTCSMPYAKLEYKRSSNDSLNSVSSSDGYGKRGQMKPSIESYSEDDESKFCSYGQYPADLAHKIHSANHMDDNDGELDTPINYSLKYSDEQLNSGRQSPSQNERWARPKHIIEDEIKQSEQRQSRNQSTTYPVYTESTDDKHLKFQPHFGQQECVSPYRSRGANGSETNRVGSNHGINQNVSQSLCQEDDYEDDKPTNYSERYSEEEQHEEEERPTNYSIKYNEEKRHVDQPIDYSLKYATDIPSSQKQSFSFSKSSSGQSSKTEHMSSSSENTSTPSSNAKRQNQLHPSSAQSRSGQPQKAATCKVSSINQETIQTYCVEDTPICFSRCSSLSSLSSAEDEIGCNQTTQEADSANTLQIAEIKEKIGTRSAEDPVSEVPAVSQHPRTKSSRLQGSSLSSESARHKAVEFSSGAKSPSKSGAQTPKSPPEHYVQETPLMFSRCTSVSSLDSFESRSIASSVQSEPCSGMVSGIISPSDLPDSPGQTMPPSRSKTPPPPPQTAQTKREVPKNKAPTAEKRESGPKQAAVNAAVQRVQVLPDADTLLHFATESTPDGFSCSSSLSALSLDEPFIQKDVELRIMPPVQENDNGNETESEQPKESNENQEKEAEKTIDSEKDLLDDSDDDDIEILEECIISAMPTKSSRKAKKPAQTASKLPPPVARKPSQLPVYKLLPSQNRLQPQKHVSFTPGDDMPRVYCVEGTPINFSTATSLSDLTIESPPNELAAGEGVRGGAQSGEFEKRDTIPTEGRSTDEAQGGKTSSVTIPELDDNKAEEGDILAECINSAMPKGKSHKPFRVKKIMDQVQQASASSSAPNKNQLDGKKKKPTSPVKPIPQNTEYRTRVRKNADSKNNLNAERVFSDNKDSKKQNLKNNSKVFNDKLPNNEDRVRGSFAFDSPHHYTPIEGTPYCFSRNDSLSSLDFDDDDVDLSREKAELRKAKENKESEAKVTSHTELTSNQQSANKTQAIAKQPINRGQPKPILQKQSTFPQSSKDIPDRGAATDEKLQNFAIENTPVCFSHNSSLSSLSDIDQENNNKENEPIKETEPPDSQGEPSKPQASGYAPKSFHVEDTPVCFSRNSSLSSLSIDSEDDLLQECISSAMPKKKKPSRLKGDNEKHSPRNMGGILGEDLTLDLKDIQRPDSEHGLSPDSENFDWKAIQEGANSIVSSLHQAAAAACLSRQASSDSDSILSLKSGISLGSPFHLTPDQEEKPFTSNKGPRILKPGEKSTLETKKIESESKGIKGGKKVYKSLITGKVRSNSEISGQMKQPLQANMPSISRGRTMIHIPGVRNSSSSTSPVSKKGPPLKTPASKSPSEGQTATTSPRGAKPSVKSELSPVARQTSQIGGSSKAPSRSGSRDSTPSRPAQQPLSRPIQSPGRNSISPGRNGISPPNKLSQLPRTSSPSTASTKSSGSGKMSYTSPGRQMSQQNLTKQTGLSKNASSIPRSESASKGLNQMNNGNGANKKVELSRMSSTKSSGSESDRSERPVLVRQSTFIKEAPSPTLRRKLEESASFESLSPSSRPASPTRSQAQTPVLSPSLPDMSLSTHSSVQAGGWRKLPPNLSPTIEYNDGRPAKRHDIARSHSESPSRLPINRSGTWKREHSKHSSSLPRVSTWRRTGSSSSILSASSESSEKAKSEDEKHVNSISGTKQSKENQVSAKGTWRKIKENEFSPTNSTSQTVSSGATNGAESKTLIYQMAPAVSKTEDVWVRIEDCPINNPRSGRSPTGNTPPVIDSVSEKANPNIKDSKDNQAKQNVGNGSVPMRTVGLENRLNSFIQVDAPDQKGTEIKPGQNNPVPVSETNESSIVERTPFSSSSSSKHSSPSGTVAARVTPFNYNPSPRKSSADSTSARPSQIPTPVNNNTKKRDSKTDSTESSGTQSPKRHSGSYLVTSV
UniProt Q9UKB1: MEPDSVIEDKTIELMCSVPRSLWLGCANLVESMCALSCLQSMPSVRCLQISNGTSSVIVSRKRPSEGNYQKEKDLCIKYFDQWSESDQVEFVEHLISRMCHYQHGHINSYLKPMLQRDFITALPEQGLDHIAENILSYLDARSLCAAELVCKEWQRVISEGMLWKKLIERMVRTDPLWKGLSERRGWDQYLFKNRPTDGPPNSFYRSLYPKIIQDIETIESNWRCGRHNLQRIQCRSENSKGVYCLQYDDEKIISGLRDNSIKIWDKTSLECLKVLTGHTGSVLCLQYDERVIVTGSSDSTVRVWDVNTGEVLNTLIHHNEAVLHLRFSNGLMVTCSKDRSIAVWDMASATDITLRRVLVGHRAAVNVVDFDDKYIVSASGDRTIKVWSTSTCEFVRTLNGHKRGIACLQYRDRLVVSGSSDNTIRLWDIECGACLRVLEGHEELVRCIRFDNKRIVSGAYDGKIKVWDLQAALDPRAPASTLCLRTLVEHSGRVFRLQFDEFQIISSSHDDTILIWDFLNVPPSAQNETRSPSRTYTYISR
UniProt P35222: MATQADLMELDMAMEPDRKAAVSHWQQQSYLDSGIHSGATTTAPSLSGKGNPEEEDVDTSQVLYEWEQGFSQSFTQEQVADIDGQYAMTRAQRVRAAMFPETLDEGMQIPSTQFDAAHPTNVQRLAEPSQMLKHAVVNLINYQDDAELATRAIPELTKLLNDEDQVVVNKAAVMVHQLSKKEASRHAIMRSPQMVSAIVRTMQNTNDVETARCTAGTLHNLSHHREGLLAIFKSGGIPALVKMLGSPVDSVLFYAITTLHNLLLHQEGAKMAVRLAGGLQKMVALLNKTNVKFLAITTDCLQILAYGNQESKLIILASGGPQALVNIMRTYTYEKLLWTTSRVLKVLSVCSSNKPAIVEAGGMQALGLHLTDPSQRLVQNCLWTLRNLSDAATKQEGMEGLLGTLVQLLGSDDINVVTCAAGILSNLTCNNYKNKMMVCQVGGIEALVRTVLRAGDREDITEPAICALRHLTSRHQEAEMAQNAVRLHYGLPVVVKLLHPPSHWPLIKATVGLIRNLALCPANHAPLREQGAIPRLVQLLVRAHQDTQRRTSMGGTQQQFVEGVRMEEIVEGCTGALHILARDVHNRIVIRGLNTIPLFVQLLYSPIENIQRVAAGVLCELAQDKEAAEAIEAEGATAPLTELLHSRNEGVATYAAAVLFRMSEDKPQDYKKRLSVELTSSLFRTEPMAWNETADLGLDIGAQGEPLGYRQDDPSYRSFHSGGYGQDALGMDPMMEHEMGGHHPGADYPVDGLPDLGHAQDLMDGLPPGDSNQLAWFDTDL
UniProt Q8IUR7: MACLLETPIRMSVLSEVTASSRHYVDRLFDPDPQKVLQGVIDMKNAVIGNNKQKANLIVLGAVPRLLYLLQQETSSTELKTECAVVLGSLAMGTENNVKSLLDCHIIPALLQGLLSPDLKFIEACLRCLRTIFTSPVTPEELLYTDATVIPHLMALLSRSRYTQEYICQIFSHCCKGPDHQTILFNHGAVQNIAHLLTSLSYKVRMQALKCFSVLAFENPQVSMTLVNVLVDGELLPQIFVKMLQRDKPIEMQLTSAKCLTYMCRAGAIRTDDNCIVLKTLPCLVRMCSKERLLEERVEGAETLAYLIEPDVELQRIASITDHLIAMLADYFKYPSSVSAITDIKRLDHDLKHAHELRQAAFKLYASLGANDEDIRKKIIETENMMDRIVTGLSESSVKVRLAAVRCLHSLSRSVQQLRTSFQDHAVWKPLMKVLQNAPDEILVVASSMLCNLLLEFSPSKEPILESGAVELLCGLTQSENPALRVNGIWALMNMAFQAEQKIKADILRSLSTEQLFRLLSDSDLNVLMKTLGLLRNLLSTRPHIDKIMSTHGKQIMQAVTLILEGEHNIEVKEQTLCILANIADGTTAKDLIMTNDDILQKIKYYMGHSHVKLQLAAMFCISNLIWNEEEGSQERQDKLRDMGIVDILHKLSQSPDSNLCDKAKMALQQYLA
UniProt P49840: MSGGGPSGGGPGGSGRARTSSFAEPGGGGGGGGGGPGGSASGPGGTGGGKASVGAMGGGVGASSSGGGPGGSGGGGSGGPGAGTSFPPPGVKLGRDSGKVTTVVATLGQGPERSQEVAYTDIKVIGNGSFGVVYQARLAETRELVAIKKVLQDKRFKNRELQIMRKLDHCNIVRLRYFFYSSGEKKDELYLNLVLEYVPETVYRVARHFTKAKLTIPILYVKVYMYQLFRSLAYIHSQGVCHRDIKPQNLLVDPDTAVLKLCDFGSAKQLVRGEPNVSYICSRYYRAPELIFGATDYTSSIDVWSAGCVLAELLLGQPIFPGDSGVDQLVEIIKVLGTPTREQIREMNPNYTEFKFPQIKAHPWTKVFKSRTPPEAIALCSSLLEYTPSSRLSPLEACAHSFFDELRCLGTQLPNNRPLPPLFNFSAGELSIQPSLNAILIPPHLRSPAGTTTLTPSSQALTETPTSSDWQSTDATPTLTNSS
UniProt P35221: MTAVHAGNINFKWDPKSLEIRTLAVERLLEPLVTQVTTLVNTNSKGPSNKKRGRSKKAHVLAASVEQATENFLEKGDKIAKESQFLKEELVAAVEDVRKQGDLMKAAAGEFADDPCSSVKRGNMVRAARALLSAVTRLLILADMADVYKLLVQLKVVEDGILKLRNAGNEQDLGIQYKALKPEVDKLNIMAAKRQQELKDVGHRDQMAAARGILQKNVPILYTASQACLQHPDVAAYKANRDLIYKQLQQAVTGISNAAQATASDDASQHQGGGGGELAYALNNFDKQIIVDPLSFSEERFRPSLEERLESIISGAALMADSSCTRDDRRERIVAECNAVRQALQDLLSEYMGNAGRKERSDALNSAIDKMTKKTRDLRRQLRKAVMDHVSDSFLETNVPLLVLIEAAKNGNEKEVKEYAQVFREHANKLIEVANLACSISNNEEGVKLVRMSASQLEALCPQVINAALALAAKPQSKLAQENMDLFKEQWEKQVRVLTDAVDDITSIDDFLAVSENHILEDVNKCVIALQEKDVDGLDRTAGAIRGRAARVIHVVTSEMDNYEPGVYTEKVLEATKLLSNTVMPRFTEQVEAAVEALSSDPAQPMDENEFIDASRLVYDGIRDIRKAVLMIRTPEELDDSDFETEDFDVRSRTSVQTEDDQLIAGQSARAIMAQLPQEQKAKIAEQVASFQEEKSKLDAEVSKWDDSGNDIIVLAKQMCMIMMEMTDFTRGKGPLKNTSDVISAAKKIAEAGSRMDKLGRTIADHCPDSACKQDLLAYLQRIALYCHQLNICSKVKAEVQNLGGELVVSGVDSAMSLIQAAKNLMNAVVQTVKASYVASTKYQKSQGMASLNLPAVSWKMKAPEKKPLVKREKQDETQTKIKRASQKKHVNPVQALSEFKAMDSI

Tests used:
Assay in all cases: affinity purification with mass spectrometry
3xFLAG-eGFP-Axin1 = 3xFLAG-eGFP-Axin1 (UniProt O15169)
eGFP-Axin1 = eGFP-Axin1 (UniProt O15169)
[1] = molecular target: 3xFLAG-mScarlet-APC (human (endogenous in HEK293)) (UniProt P25054)

Row | binding (3xFLAG-eGFP-Axin1) | binding (eGFP-Axin1) | binding [1] | Substance
1 | binds | binds | – | βTrCP (FBXW11) (from UniProt Q9UKB1 1-542)
2 | binds | – | – | CTBP2 (from UniProt P56545 1-445)
3 | binds | binds | – | ARHGAP21 (from UniProt Q5T5U3 1-1958)

The remaining lines, values behind:

Row | Substance | binding (3xFLAG-eGFP-Axin1) | binding (eGFP-Axin1) | binding [1]
4 | β-catenin (from UniProt P35222 1-781) | binds | binds | –
5 | ARMC8 (from UniProt Q8IUR7 1-673) | – | – | binds
6 | GSK3α (from UniProt P49840 1-483) (enzyme) | binds | binds | –
7 | Axin1 (endogenous) (from UniProt O15169 1-862) | – | – | binds
8 | α-catenin (from UniProt P35221 1-906) | binds | binds | –
